Data reported in patent US20230312753A1 (IMMUNORIZON, published 2023).
Results are given in words; binding and its absence hold for the method and conditions named. Some binding calls cover weakened binding; strength is not graded here.

What was measured:
[1] = molecular target: 5T4 on cells (NCI-H226 endogenous; CHO over-expressing 5T4) (UniProt Q13641); experiment: FACS on cells
[2] = molecular target: T1, h5T4-His (recombinant human 5T4) (human, UniProt Q13641 32-355, limits assumed); experiment: ELISA on recombinant proteins
T1 construct: Bought protein; also called recombinant 5T4
T1 sequence (looked up): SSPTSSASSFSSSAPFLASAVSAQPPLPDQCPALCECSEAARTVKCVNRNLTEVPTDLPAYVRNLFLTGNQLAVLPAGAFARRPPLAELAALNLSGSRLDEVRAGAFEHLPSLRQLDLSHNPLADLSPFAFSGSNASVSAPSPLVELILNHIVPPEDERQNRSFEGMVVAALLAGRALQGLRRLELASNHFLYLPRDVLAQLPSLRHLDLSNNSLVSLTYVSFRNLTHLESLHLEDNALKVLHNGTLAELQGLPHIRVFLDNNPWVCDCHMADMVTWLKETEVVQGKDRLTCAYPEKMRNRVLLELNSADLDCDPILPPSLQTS

B1: IM-1093 Tribody, NKG2A mutant variant (other)
heavy: GGSGGSEVQLVESGGGLVQPGGSLRLSCAASGFTFNTYAMNWVRQAPGKGLEWVARIRSKYNNYATYYADSVKDRFTISRDDSKNTLYLQMNSLRAEDTAVYYCVRHGNFGNSYVSWFAYWGQGTMVTVSSASTKGPSVFPLAPSSKSTSGGTAALGCLVKDYFPEPVTVSWNSGALTSGVHTFPAVLQSSGLYSLSSVVTVPSSSLGTQTYICNVNHKPSNTKVDKRVEPKSCPPCGGGGSDIQMTQSPSSLSASVGDRVTITCRASENIYSALAWYQQKPGKAPKLLIYNAKTLAEGVPSRFSGSGSGTDFTLTISSLQPEDFATYYCQHHAGTPRTFGGGTKVEIKGGGGSGGGGSGGGGSGGGGSQVQLVQSGAEVKKPGASVKVSCKASGYTFTSYWMNWVRQAPGQGLEWMGRIDPYDSETHYAQKLQGRVTMTTDTSTSTAYMELRSLRSDDTAVYYCARGGYDFDVDTLYWFFDVWGQGTTVTVSS
light: GGSGGSQAVVTQEPSLTVSPGGTVTLTCRSSTGAVTTSNYANWVQQKPGQAPRGLIGGTNKRAPGTPARFSGSLLGGKAALTLSGVQPEDEAEYYCALWYSNLWVFGGGTKLTVLGQPKAAPSVTLFPPSSEELQANKATLVCLISDFYPGAVTVAWKADSSPVKAGVETTTPSKQSNNKYAASSYLSLTPEQWKSHRSYSCQVTHEGSTVEKTVAPTECPPCSGGGSDIQMTQSPSSLSASVGDRVTITCRASQGISNYLAWFQQKPGKAPKSLIYRANRLQSGVPSRFSGSGSGTDFTLTISSLQPEDVATYYCLQYDDFPWTFGQGTKLEIKGGGGSGGGGSGGGGSGGGGSQVQLVQSGAEVKKPGASVKVSCKASGYTFTSFWMHWVRQAPGQGLEWMGRIDPNRGGTEYNEKAKSRVTMTADKSTSTAYMELSSLRSEDTAVYYCAGGNPYYPMDYWGQGTTVTVSS
notes: also called NKG2A mutated Tribody
binding [1]: binds
binding [2]: binds
